PubChem BioAssay AID1259405 | NCATS, 2018
Here is an unselected part of about 50,000 reagents. Of all reagents, about 4,000 (8%) got an active call. 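Mouse siRNA library applied to hamster cells; one well for each siRNA.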 Reagents against one gene are numbered here. No sequences are given here.

Test: 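Mouse-designed siRNAs used to find CHO productivity engineering targets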 (primary screen)
Cells: Chinese hamster CHO-K1 ovary cells with stable secreted eGFP expression
Reagents: single siRNA against mouse genes, 0.8 pmol siRNA per well (2 µl of 400 nM stock)
Time to read-out: 3 days
Read-out: 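Percent of the per-plate non-targeting control median for intracellular GFP per well by laser scanning cytometry and for cell viability by ATP luminescence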
Reading the numbers: GFP, % of control: higher = more GFP per well, higher productivity; viability (ATP), % of control: higher = more viable cells (more ATP)
Active means: 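Called active when intracellular GFP, relative to negative control, is at or above 120%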

GFP, % of control	viability (ATP), % of control	Call	gene knocked down	siRNA no.
99.1	71.6	inactive	Tnfsf9 (GeneID 21950)	1
91.3	129	inactive	Tnfsf9 (GeneID 21950)	2
121	125	active	Tnfsf9 (GeneID 21950)	3
125	79.8	active	Pdcd11 (GeneID 18572)	1
81.8	85.8	inactive	Pdcd11 (GeneID 18572)	2
88	102	inactive	Pdcd11 (GeneID 18572)	3
80.2	67	inactive	Phf20l1 (GeneID 239510)	1
125	94.3	active	Phf20l1 (GeneID 239510)	2
42.8	49.4	inactive	Crym (GeneID 12971)	1
31.8	43.3	inactive	Crym (GeneID 12971)	2
43.5	46.3	inactive	Crym (GeneID 12971)	3
103	102	inactive	Flot2 (GeneID 14252)	1
85.9	86.9	inactive	Flot2 (GeneID 14252)	2
76	71.8	inactive	Trim12c (GeneID 319236)	1
109	90.3	inactive	Trim12c (GeneID 319236)	2
115	111	inactive	Trim12c (GeneID 319236)	3
73.1	69.9	inactive	Gm6116 (GeneID 619945)	1
55.7	59.6	inactive	Gm6116 (GeneID 619945)	2
167	56.3	active	Gm6116 (GeneID 619945)	3
87.4	79.1	inactive	Tnfrsf10b (GeneID 21933)	1
76.9	77.6	inactive	Tnfrsf10b (GeneID 21933)	2
96.5	86	inactive	Tnfrsf10b (GeneID 21933)	3
54.2	54.2	inactive	Kifc5b (GeneID 16580)	1
61.1	66.6	inactive	Kifc5b (GeneID 16580)	2
64.4	67.4	inactive	Kifc5b (GeneID 16580)	3
56.5	69.3	inactive	Hycc2 (GeneID 213056)	1
59.9	81.8	inactive	Hycc2 (GeneID 213056)	2
120	134	active	Hycc2 (GeneID 213056)	3
37	36.6	inactive	Sele (GeneID 20339)	1
88.5	71.3	inactive	Sele (GeneID 20339)	2
77.2	68.7	inactive	Tmem98 (GeneID 103743)	1
89.2	91.8	inactive	Tmem98 (GeneID 103743)	2
148	175	active	Tmem98 (GeneID 103743)	3
148	175	active	Tmem98 (GeneID 103743)	4
83.8	80.9	inactive	Tmem98 (GeneID 103743)	5
98.4	82.8	inactive	Tmem98 (GeneID 103743)	6
29.5	27.8	inactive	Prkag1 (GeneID 19082)	1
85.3	72.1	inactive	Prkag1 (GeneID 19082)	2
94.2	78.2	inactive	Mien1 (GeneID 103742)	1
98.5	86.2	inactive	Mien1 (GeneID 103742)	2
63.1	84.8	inactive	Mien1 (GeneID 103742)	3
80.3	80.7	inactive	Ltbr (GeneID 17000)	1
61.6	58.8	inactive	Ltbr (GeneID 17000)	2
44.5	60.2	inactive	Ltbr (GeneID 17000)	3
98.5	112	inactive	Or52p2 (GeneID 258750)	1
76.1	45.9	inactive	Or52p2 (GeneID 258750)	2
49	107	inactive	Or52p2 (GeneID 258750)	3
109	38.3	inactive	Ctag2 (GeneID 70062)	1
34.2	60.2	inactive	Ctag2 (GeneID 70062)	2
64.3	84.6	inactive	Ctag2 (GeneID 70062)	3
90.7	73.6	inactive	Heph (GeneID 15203)	1
57.4	63.1	inactive	Heph (GeneID 15203)	2
28.2	49.9	inactive	Heph (GeneID 15203)	3
124	84.5	active	Ube2e3 (GeneID 22193)	1
64.6	54.4	inactive	Ube2e3 (GeneID 22193)	2
66.7	73.6	inactive	Ube2e3 (GeneID 22193)	3
60.1	60.4	inactive	Plp1 (GeneID 18823)	1
89.6	77	inactive	Plp1 (GeneID 18823)	2
43	48.2	inactive	Plp1 (GeneID 18823)	3

Records above whose gene name starts with L or l:
GFP, % of control	viability (ATP), % of control	Call	gene knocked down	siRNA no.
80.3	80.7	inactive	Ltbr (GeneID 17000)	1
61.6	58.8	inactive	Ltbr (GeneID 17000)	2
44.5	60.2	inactive	Ltbr (GeneID 17000)	3
